Measured values as given in publication PMC8560711.
Results are given in words; binding and its absence hold for the method and conditions named. In cells and extracts the contact can be indirect. Some entries that bind do so weakly or less than the wild type.

Chains of the proteins cited; added tags and fusions are not shown.
UniProt Q8R4B8: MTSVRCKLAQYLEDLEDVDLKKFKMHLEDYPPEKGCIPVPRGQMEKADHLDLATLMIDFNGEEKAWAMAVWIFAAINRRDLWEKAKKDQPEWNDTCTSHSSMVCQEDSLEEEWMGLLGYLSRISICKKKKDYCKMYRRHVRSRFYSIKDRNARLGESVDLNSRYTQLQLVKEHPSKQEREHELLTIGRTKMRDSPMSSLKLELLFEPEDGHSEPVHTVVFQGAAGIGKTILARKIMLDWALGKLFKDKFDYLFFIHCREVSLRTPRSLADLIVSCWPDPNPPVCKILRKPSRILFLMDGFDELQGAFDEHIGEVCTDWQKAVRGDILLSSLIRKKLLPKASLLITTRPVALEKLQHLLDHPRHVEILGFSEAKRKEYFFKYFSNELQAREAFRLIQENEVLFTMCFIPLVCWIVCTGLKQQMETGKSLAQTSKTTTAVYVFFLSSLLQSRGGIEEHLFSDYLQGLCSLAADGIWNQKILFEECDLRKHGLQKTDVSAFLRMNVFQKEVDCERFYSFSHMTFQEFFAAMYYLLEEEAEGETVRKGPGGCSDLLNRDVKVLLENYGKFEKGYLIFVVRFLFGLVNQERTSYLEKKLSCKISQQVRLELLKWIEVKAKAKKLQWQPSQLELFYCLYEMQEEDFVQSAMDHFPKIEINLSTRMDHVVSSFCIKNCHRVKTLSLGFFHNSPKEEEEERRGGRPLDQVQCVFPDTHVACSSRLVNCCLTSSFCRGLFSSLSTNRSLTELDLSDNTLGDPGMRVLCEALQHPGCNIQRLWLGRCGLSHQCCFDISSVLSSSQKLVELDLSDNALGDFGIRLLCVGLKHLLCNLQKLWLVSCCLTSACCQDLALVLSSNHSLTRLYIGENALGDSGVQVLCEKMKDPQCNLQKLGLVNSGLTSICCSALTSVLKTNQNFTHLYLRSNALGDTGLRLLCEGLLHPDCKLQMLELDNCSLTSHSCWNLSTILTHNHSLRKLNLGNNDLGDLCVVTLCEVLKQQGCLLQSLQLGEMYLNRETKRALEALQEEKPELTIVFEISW

Molecular target: nucleotide-binding oligomerization domain-like receptor protein 3 (mouse (endogenous in BMDMs)) (UniProt Q8R4B8)
Assay: co-IP; lysates (RIPA buffer) of BMDMs treated with LPS and 5 mM ATP for 24 h, without or with calycosin (5 and 10 uM); immunoprecipitated with NLRP3 antibody or IgG control antibody with protein A/G beads; western blot

B1: caspase 1 (protein, UniProt P29452 1-402)
chain: MADKILRAKRKQFINSVSIGTINGLLDELLEKRVLNQEEMDKIKLANITAMDKARDLCDHVSKKGPQASQIFITYICNEDCYLAGILELQSAPSAETFVATEDSKGGHPSSSETKEEQNKEDGTFPGLTGTLKFCPLEKAQKLWKENPSEIYPIMNTTTRTRLALIICNTEFQHLSPRVGAQVDLREMKLLLEDLGYTVKVKENLTALEMVKEVKEFAACPEHKTSDSTFLVFMSHGIQEGICGTTYSNEVSDILKVDTIFQMMNTLKCPSLKDKPKVIIIQACRGEKQGVVLLKDSVRDSEEDFLTDAIFEDDGIKKAHIEKDFIAFCSSTPDNVSWRHPVRGSLFIESLIKHMKEYAWSCDLEDIFRKVRFSFEQPEFRLQMPTADRVTLTKRFYLFPGH
Q: With B1 as the binder, how does the binding read?
A: The binding was “binds”.
